Test results taken from US20240148648A1, “SUSTAINED RELEASE THERMOSETTING GELS COMPRISING ANESTHETIC DRUGS AND THE METHODS OF MAKING THE SAME” (Pacira Therapeutics, Inc., priority 2021, published 2024).

Assay: Rheological analysis of hydrogel formulations (CGT, onset temperature, max G′)
Assay type: physicochemical
Settings: compared to the vehicle
Procedure: The development of the initial formulations of the study described herein focused on using the triblock copolymer P1 of Table 1, as a matrix to achieve the desired critical gelation temperature. The first formulation targeted a drug load of 10 mg/mL lidocaine in 2% DMA, 10% Polyethylene Glycol 400 (PEG 400), and 20% P1 (Table 2). PEG 400 was used as a co-solvent to further enhance solubility of the active in aqueous media and to decrease the gelation temperature to be close to but below body temperature. Rheological properties including critical gelation temperature (CGT), onset temperature, and elastic (G′) and viscous (G″) moduli were used in conjunction with visual and IVR experiments to analyze the impact of different formulation component compositions and concentrations on the suitability of the formulation in an extended-release postsurgical pain management indication. […] The effect of the concentrations of PEG 400 and/or the polymer concentration on the measured critical gelation and onset temperatures of the formulations tested with P1 is summarized in Table 2.

Structure (SMILES): CCN(CC)CC(=O)Nc1c(C)cccc1C [lidocaine, 2-(diethylamino)-N-(2,6-dimethylphenyl)acetamide]
- Impact of drug on gelation properties of the formulation: did not have a significant impact on gelation properties
